Data taken from patent US20250376472A1, “3-(PHENYLSULFONYL)-[1,2,3]TRIAZOLO[1,5A]QUINAZOLIN-5(4H)-ONE DERIVATIVES” (priority 2022, published 2025).
At least one compound was matched to its structure with a doubt left. Some compounds share one wording; it may come from a single statement.

Amino acid sequences for entries named in this document (tags omitted). A change or cut given only in a name is not applied to a line headed by its entry.
UniProt P0A0I7: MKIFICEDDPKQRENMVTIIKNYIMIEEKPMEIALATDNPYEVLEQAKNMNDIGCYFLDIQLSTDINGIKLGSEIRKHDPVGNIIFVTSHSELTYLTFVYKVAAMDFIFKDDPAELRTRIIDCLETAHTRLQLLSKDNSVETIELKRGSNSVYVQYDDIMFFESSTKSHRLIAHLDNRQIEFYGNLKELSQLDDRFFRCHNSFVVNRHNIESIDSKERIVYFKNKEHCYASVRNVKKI

target: T1, AgrA (Staphylococcus aureus, UniProt P0A0I7); assay type: cell-based, S. aureus; settings: 40 mg/mL HSA versus no HSA
T1 construct: endogenous in cells; host or cells: S. aureus USA300 strain UAMS-1625 carrying a P3-lacZ reporter plasmid
Procedure: The inventive compounds are 3-(phenylsulfonyl)-[1,2,3]triazolo[1,5a]quinazolin-5(4h)-one derivatives comprising an N-bound piperazine or homopiperazine at the 8-position of the [1,2,3]triazolo[1,5a]quinazolin-5(4h)-one core, further substituted (on the second nitrogen atom) by an (optionally substituted) acetyl or propionyl amide group. […] Specifically, the reporter gene lacZ (which encodes the protein product β-galactosidase) was transfected into S. aureus with a plasmid under control of the P3 promoter. The compounds were serially diluted in lysogeny broth (LB), and incubated with S. aureus. Following incubation, the S. aureus cells were lysed and treated with 4-methylumbelliferyl-galactopyranoside (MUG). The β-galactosidase produced by expression of lacZ cleaved the MUG into galactopyranose and 4-methylumbelliferone, which was measured by fluorescence.
The resulting reporter strain was used to measure AgrA inhibitory activity as follows. From an overnight culture plate, cells were resuspended in 0.9% (w/v) saline solution and bacterial inoculum was prepared in LB medium with 5×10^5 CFU/ml. Compounds were two-fold serially diluted in LB and 50 μL of this 10× concentrated samples were added into the 96-deep well plate. 500 μL of bacterial suspension was finally added to the compounds or DMSO control. Plates were covered and incubated with shaking at 37° C. After 18 hours incubation, 100 μL was transferred to a new clear 96-well plate and the OD600 was measured using a TECAN Infinite F200 microplate reader to control for growth inhibition. Another 100 μL was transferred to a new black 96-well plate containing 30 μL of lysis buffer (20 mM Tris/HCl, 3 mM MgCl2, 0.5% Tween 20 (v/v), 0.5% NP-40 (v/v)) and the plate was incubated with shaking at 37° C. for 60 min. 20 μL of the substrate MUG (4-Methylumbelliferyl O-D-galactopyranoside) at 0.25 mg/ml was added and the fluorescence (excitation: 360 nm, emission: 450 mu) was measured with a TECAN Infinite F200 microplate reader after 3 hours incubation at 37° C. with shaking. The IC50 was determined using GraphPad PRISM after normalization to DMSO control.

| Structure (SMILES) | Ratio IC50 (in presence of HSA)/IC50 (in absence of HSA) |
| --- | --- |
| Cc1ccc(S(=O)(=O)c2nnn3c2[nH]c(=O)c2ccc(N4CCCN(CC(=O)NC5CCCC5)CC4)cc23)c(C)c1 [Compound 52] | +++ (+++: ratio ≤ 25) |
| CCN1CCCC1CNC(=O)CN1CCN(c2ccc3c(=O)[nH]c4c(S(=O)(=O)c5ccc(C)cc5C)nnn4c3c2)CC1 (stereo not shown) [Compound 93] | +++ (+++: ratio ≤ 25) |
| CCN(C)C(=O)CN1CCN(c2ccc3c(=O)[nH]c4c(S(=O)(=O)c5ccc(C)cc5C)nnn4c3c2)CC1 [Compound 9] | ++ (++: 25 < ratio ≤ 125) |
| CCCNC(=O)CN1CCCN(c2ccc3c(=O)[nH]c4c(S(=O)(=O)c5ccc(C)cc5C)nnn4c3c2)CC1 [Compound 30] | ++ (++: 25 < ratio ≤ 125) |
| Cc1ccc(S(=O)(=O)c2nnn3c2[nH]c(=O)c2ccc(N4CCN(CC(=O)NCc5cccc(O)c5)CC4)cc23)c(C)c1 [Compound 108] | ++ (++: 25 < ratio ≤ 125) |
| Cc1ccc(S(=O)(=O)c2nnn3c2[nH]c(=O)c2ccc(N4CCN(CC(=O)NC5CCC(N(C)C)CC5)CC4)cc23)c(C)c1 (stereo not shown) [Compound 42] | +++ (+++: ratio ≤ 25) |
| Cc1ccc(S(=O)(=O)c2nnn3c2[nH]c(=O)c2ccc(N4CCN(CC(=O)N5CCCN(C)CC5)CC4)cc23)c(C)c1 [Compound 69] | +++ (+++: ratio ≤ 25) |
| Cc1ccc(S(=O)(=O)c2nnn3c2[nH]c(=O)c2ccc(N4CCN(CC(=O)NCCC(C)(C)C)CC4)cc23)c(C)c1 [Compound 13] | ++ (++: 25 < ratio ≤ 125) |
| CCCCCCNC(=O)CN1CCN(c2ccc3c(=O)[nH]c4c(S(=O)(=O)c5ccc(C)cc5C)nnn4c3c2)CC1 [Compound 12] | ++ (++: 25 < ratio ≤ 125) |
| Cc1ccc(S(=O)(=O)c2nnn3c2[nH]c(=O)c2ccc(N4CCCN(CC(=O)NCc5ccccc5)CC4)cc23)c(C)c1 [Compound 123] | ++ (++: 25 < ratio ≤ 125) |
| Cc1ccc(S(=O)(=O)c2nnn3c2[nH]c(=O)c2ccc(N4CCN(CC(=O)N5CC(N)C5)CC4)cc23)c(C)c1 [Compound 139] | +++ (+++: ratio ≤ 25) |
| Cc1ccc(S(=O)(=O)c2nnn3c2[nH]c(=O)c2ccc(N4CCN(CC(=O)NCCCCO)CC4)cc23)c(C)c1 [Compound 20] | ++ (++: 25 < ratio ≤ 125) |
| Cc1ccc(S(=O)(=O)c2nnn3c2[nH]c(=O)c2ccc(N4CCN(CC(=O)NC5CCN(C)CC5)CC4)cc23)c(C)c1 [Compound 86] | +++ (+++: ratio ≤ 25) |
| Cc1ccc(S(=O)(=O)c2nnn3c2[nH]c(=O)c2ccc(N4CCN(CC(=O)NCc5ccccc5)CC4)cc23)c(C)c1 [Compound 106] | ++ (++: 25 < ratio ≤ 125) |
| Cc1ccc(S(=O)(=O)c2nnn3c2[nH]c(=O)c2ccc(N4CCN(CC(=O)NCC(C)C)CC4)cc23)c(C)c1 [Compound 7] | ++ (++: 25 < ratio ≤ 125) |
| CNC(=O)CN1CCN(c2ccc3c(=O)[nH]c4c(S(=O)(=O)c5ccc(C)cc5C)nnn4c3c2)CC1 [Compound 3] | +++ (+++: ratio ≤ 25) |
| Cc1ccc(S(=O)(=O)c2nnn3c2[nH]c(=O)c2ccc(N4CCN(CC(=O)NCCOCCO)CC4)cc23)c(C)c1 [Compound 21] | ++ (++: 25 < ratio ≤ 125) |
| Cc1ccc(S(=O)(=O)c2nnn3c2[nH]c(=O)c2ccc(N4CCN(CC(=O)NCCN)CC4)cc23)c(C)c1 [Compound 131] | +++ (+++: ratio ≤ 25) |
| Cc1ccc(S(=O)(=O)c2nnn3c2[nH]c(=O)c2ccc(N4CCN(CC(=O)NCCn5ccnc5)CC4)cc23)c(C)c1 [Compound 117] | +++ (+++: ratio ≤ 25) |
